For some of these results: Strings that start with PEPTIDE1 are HELM notation: dots part the residues, brackets hold end groups and non-standard residues. Bridges are numbered along the chain shown (N, C = ends). [ ]: non-standard residue; d: D form. Trp(1-Me) = Cn1cc(C[C@H](N)C(=O)O)c2ccccc21
Experiments:
peptide synthesis = details: whole synthesis
[1] = general procedure: Fmoc solid-phase peptide synthesis; details: whole synthesis, 214 nm

Substance | final HPLC purity (peptide synthesis) [%] | other results
Ac-ICIWQDWGAHRCT-NH2 (disulfide 2-12; SMILES CC[C@H](C)[C@H](NC(C)=O)C(=O)N[C@H]1CSSC[C@@H](C(=O)N[C@H](C(N)=O)[C@@H](C)O)NC(=O)[C@H](CCCNC(=N)N)NC(=O)[C@H](Cc2c[nH]cn2)NC(=O)[C@H](C)NC(=O)CNC(=O)[C@H](Cc2c[nH]c3ccccc23)NC(=O)[C@H](CC(=O)O)NC(=O)[C@H](CCC(N)=O)NC(=O)[C@H](Cc2c[nH]c3ccccc23)NC(=O)[C@H]([C@@H](C)CC)NC1=O) | >98 | –
Ac-ICI[Trp(1-Me)]QDWGAHRCT-NH2 (disulfide 2-12; SMILES CC[C@H](C)[C@H](NC(C)=O)C(=O)N[C@H]1CSSC[C@@H](C(=O)N[C@H](C(N)=O)[C@@H](C)O)NC(=O)[C@H](CCCNC(=N)N)NC(=O)[C@H](Cc2c[nH]cn2)NC(=O)[C@H](C)NC(=O)CNC(=O)[C@H](Cc2c[nH]c3ccccc23)NC(=O)[C@H](CC(=O)O)NC(=O)[C@H](CCC(N)=O)NC(=O)[C@H](Cc2cn(C)c3ccccc23)NC(=O)[C@H]([C@@H](C)CC)NC1=O) | 95 | –
Ac-ICVWQDW[dA]AHRCT-NH2 (disulfide 2-12) | – | final HPLC purity [1]: >98%
PEPTIDE1{[ac].I.C.V.[1MeTrp].Q.D.W.G.A.H.R.C.T.[am]}$PEPTIDE1,PEPTIDE1,3:R3-13:R3$$$V2.0 | >98 | –
PEPTIDE1{[dY].I.C.I.[Trp1Me].Q.D.W.[Sar].A.H.R.C.[NMeIle].K.K.[am]}$PEPTIDE1,PEPTIDE1,3:R3-13:R3$$$V2.0 | – | final HPLC purity (peptide synthesis; Acetate salt): >98%
PEPTIDE1{[dY].I.C.I.[Trp1Me].Q.D.W.[Sar].A.H.R.C.[NMeIle].[am]}$PEPTIDE1,PEPTIDE1,3:R3-13:R3$$$V2.0 | >98 | –
PEPTIDE1{[dY].I.C.V.[Trp1Me].Q.D.W.[Sar].A.H.R.C.[NMeIle].[am]}$PEPTIDE1,PEPTIDE1,3:R3-13:R3$$$V2.0 | >98 | –
